Values of other authors in patent US8828391B2, “Method for EGFR directed combination treatment of non-small cell lung cancer” (Boehringer Ingelheim International GmbH, priority 2011, dated 2014).
At least one structure is not confirmed: it was looked up by name or label, or the drawing left a doubt.

System: NSCLC patients with prior benefit from TKIs and TKI-naive patients
Conditions: phase II

Question: For `CCOc1cc2ncc(C#N)c(Nc3ccc(OCc4ccccn4)c(Cl)c3)c2cc1NC(=O)/C=C/CN(C)C` [HKI-272], which clinical activity is on record?
Answer: low activity
